“And” between values parts separate entries of the source, which are not always exact repeats. Identical values can stand only once. Like-named read-outs stand apart in the source and are kept apart here. For at least one compound, name, drawing or mass did not settle the structure.
Tested on: anti-Chlamydia abzymes
Type: biochemical, human
Parameters: key to In-vitro Inhibition: + = inhibition; − = no inhibition

With `CCN(CC)C(=S)S` [DDC, diethyldithiocarbamate] as the molecule, how does the “Result (inhibition of anti-Chlamydia abzymes)” value (10 μM of each Me2+-binding agent) read?
The value was “Positive”.

What about the “Lipid oxidising activity of anti-Chlamydia abzymes” value (10 μM of each Me2+-binding agent, control 24.3) of the same molecule?
Its value is 0 μM MDA/ml.

For `CN(C)[C@@H]1C(O)=C(C(N)=O)C(=O)[C@@]2(O)C(O)=C3C(=O)c4c(O)cccc4[C@@](C)(O)[C@H]3C[C@@H]12` [Tetracycline], which “In-vitro Inhibition” value is on record?
Its value is “−”.

What about the “Lipid oxidising activity of anti-Chlamydia abzymes” value of the same molecule?
The value was 18.3 μM MDA/ml.

What about the “Result (inhibition of anti-Chlamydia abzymes)” value of the same molecule?
The value was “Negative”.

For `C[C@@H]1C[C@H]2[C@@H]3CCC4=CC(=O)C=C[C@]4(C)[C@@]3(F)[C@@H](O)C[C@]2(C)[C@@]1(O)C(=O)CO` [Dexamethasone], which Anti-Abzyme activity is on record?
The Anti-Abzyme activity was 24.5 μM MDA/ml and 20.1 μM MDA/ml.

— patent publication US7419657B2, “Treatment of atherosclerotic disorders” (priority 2001, dated 2008)
